# Experimental data reported in PubChem BioAssay AID2417 (National Center for Advancing Translational Sciences (NCATS), 2010).
# Out of some 140,000 compounds screened, about 4,300 (3.1%) were called active. Inconclusive results, whose numbers are uncertain, are shown with a selection of clear calls.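 The calls were made as follows: active = readout at or below -70, meaning at least 70% loss of cells showing the perinucleolar compartment, a nuclear body marking cancer cells; inconclusive = readout between -30 and a set limit; inactive = the rest.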
# Test: High Content Assay for Compounds that inhibit the Assembly of the Perinucleolar Compartment;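 also: plate controls were DMSO wells for no effect and camptothecin positive control wells for full effect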
# Details: PC3M PTB-GFP, PNC prevalence imaging, 16 h; at 10 µM; stronger effect = lower value
# Summary of the method: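 Read-out is percentage of cells bearing a perinucleolar compartment, from automated 20x imaging of fixed, Hoechst-stained PC3M PTB-GFP cells. Cells were seeded 4 h, then exposed 16 h to compound (23 nl of library stock) in duplicate plates.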
row,SMILES,"activity change (PNC), negative = inhibition"
1,CCOC(=O)c1c(-c2ccc(C)cc2)csc1NC(=S)NC(=O)c1ccccc1,inactive: 3.98%
2,O=C(O)COc1ccc2nsnc2c1Cl,inconclusive: -32.8%
3,O=C(NCc1ccncc1)C(=O)NCC1OCCCN1S(=O)(=O)c1ccccc1 (configuration not stated),inconclusive: -49.9%
4,COc1ccc(NC(=O)C(OC)c2ccccc2)cc1Cl (configuration not stated),inconclusive: -46.4%
5,Cc1cccc(NC(=S)/N=C(\N)Nc2nc(C)c3cc(C)ccc3n2)c1,inactive: -4.2%
6,CCn1c(=O)[nH]c2cc(C(=O)N3CCN(c4ccccc4)CC3)ccc2c1=O,inconclusive: -30.4%
7,Cc1cccc(NC(=S)NCCc2ccc(S(N)(=O)=O)cc2)c1C,inconclusive: -33.1%
8,CCOc1ccc(CCn2c(-c3ccco3)nc3ccccc3c2=O)cc1OCC,inconclusive: -58.4%
9,COc1ccc(OC)c(C(=O)c2ccc(C(=O)N3CCCCC3)cc2)c1,inactive: 95.8%
10,COC(=O)C1(C(O)C(=O)c2ccc(C)cc2C)CCCCC1 (configuration not stated),inconclusive: -60.5%
11,CCN(C(=O)c1ccc(C(C)(C)C)cc1)c1nnc(Cn2nnc3ccccc32)s1,inactive: -26.2%
12,CCCCC(=O)Nc1ccccc1C(=O)N1CCOCC1,inconclusive: -67%
13,C=CCNC(=S)N/N=C/c1cn(-c2ccccc2)nc1-c1ccc(OC)cc1,inconclusive: -47%
14,Cc1nc(NC(=O)c2ccc(Br)s2)sc1C(=O)N(C)C,inconclusive: -60.1%
15,c1ccc(Cn2nnnc2C(c2cccs2)N2CCSCC2)cc1 (configuration not stated),inactive: 225%
16,Cn1c(=O)c2c(nc(SCCN3CCOCC3)n2Cc2cccc3ccccc23)n(C)c1=O,inactive: 12.8%
17,Cc1nc2ccc(NC(=O)Cc3ccsc3)cc2s1,inactive: 26.5%
18,Cc1nnc(-c2cnn(C)c2N)n1Cc1cccc(Cl)c1,inconclusive: -37.6%
19,CCCCCSc1nc(O)cc(=O)[nH]1,inconclusive: -36%

row,SMILES,"activity change (PNC), negative = inhibition"
1,Cc1nc2ccccc2c(=O)n1/N=C/c1ccc(N(C)C)cc1,inactive: -12.6%
2,Cc1ccc2cc(C3C(C#N)=C(N)Oc4c3ccc3cccnc43)c(=O)[nH]c2c1 (configuration not stated),inconclusive: -46.4%
3,Cc1nc(SCc2ccc(Br)cc2)[nH]c(=O)c1C,inactive: -18.8%
4,O=c1[nH]c(CCl)nc2cc(-c3ccc(Cl)cc3)sc12,inconclusive: -49.5%
5,CC(OC(=O)c1cc(S(=O)(=O)N(C)c2ccccc2)ccc1Cl)C(=O)Nc1ccc2c(c1)OCCO2 (configuration not stated),inconclusive: -40.8%
6,O=C(O)c1ccc(C(=O)c2ccc3c(c2)C(=O)N(Cc2ccco2)C3=O)cc1,inconclusive: -35.8%
7,O=C1NC(c2ccco2)Nc2sc3c(c21)CCN(Cc1ccccc1)C3 (configuration not stated),inconclusive: -48.6%
8,O=C(Nc1cc(SCCO)cc([N+](=O)[O-])c1)c1ccco1,inconclusive: -78.6%
9,CCN1C(=O)C(CC(=O)Nc2ccc(OC)cc2)N(Cc2ccco2)C1=S (configuration not stated),inactive: 21.5%
10,CC(=O)c1cccc(NC(=O)CN(c2ccccc2)S(C)(=O)=O)c1,inconclusive: -37.5%
11,O=C(O)c1ccc(-c2ccccc2Cl)o1,inactive: -7.12%
12,COc1ccc(C)cc1NC(=O)COC(=O)Cc1ccc(-c2ccccc2)cc1,inconclusive: -52.8%
13,CCOc1cc(CNc2ccc(N3CCCC3)cc2)cc(Cl)c1OC,active: -113%
14,CCOC(=O)CNC(=O)CSc1nc(N)cc(N)n1,inactive: -21.7%
15,Cc1ccc(S(=O)(=O)N(C)C)cc1-n1c(SCC(=O)Nc2ccc(F)c(F)c2F)nc2ccccc2c1=O,inactive: -16.4%
16,O=C(Nc1cccc(Cl)c1Cl)c1snnc1-c1ccccc1,inactive: 31.3%
17,CS(=O)(=O)c1ccc(C(=O)OCC(=O)NC23CC4CC(CC(C4)C2)C3)cc1[N+](=O)[O-],inactive: 8.08%
18,CCCCCCn1c(SCCC)nc2c1c(=O)[nH]c(=O)n2C,active: -85.7%
19,COc1ccc(C2=NNC(c3cccs3)=Nc3ccc(OC)cc32)cc1,inconclusive: -34.3%

# Structures listed so far that have bromine, in the order listed:
row,SMILES,"activity change (PNC), negative = inhibition"
14,Cc1nc(NC(=O)c2ccc(Br)s2)sc1C(=O)N(C)C,inconclusive: -60.1%
3,Cc1nc(SCc2ccc(Br)cc2)[nH]c(=O)c1C,inactive: -18.8%

# Next results

row,SMILES,"activity change (PNC), negative = inhibition"
1,Cn1c(=O)c([N+](=O)[O-])c(NCCc2ccccc2)c2ccccc21,inconclusive: -55%
2,Cc1noc(C)c1CSc1nnc2ccc3ccccc3n12,inconclusive: -46.8%
3,Cc1ccnc(NS(=O)(=O)c2ccc(N=CC3=C(O)CC(C)(C)CC3=O)cc2)n1,inconclusive: -38.2%
4,CC(NC(=O)Nc1ccccc1)C(c1ccccc1)N1CCOCC1 (configuration not stated),inconclusive: -45.9%
5,CC(C)Cc1nnc(NS(=O)(=O)Cc2ccccc2)s1,inconclusive: -42.8%
6,O=[N+]([O-])c1ccccc1S(=O)(=O)n1nnc2ccccc21,inactive: 54.5%
7,COc1ccccc1N1CCN(C2CCN(C(=O)COc3cccc(C)c3)CC2)CC1,inconclusive: -76.3%
8,CCN(CC)CCNC(=O)c1ccc(NC2=NC3CS(=O)(=O)CC3S2)cc1 (configuration not stated),inconclusive: -60.2%
9,CCCNc1nc(Nc2ccc(C)cc2)nc(N2CCCC2)n1,inconclusive: -35.5%
10,O=C(c1ccc2c(c1)OCCO2)C1CCN(S(=O)(=O)c2cccc(F)c2)CC1,inconclusive: -43.6%
11,COc1cccc(NC(=O)CC2S/C(=N\S(=O)(=O)c3ccccc3)N(c3ccccc3)C2=O)c1 (configuration not stated),inactive: 2.73%
12,O=C(Nc1ccccc1Sc1ccccc1)C1CCCO1 (configuration not stated),inconclusive: -48.1%
13,O=C(N/N=C/c1cccc(Oc2ccc([N+](=O)[O-])cc2[N+](=O)[O-])c1)c1cncc(Br)c1,inconclusive: -32.1%
14,CSc1ccc(/C=C(/NC(=O)c2ccc(C)cc2)C(=O)Nc2cccc(C)c2)cc1,inactive: 19.1%
15,CC(C)CCN1CC(C(=O)NCCC2=CCCCC2)CC1=O (configuration not stated),inconclusive: -37.8%
16,COc1ccc(/C=N/NC(=O)CO/N=C(\C)c2cccs2)cc1,inactive: -9.53%
17,Cc1cc(C)c(C(=O)COC(=O)CCNS(=O)(=O)c2c(Cl)cccc2Cl)cc1C,inactive: -21.6%
18,Cc1[nH]n(-c2c(Cl)cc(Cl)cc2Cl)c(=O)c1C=Nc1ccc(S(=O)(=O)N2CCOCC2)cc1,inconclusive: -58.2%
19,CCOc1ccc(CCNc2ccc3nnc(-c4ccccc4)n3n2)cc1OCC,active: -119%
